This passage reports binding results from patent US20230168255A1, “UNBLENDING OF TRANSCRIPTIONAL CONDENSATES IN HUMAN REPEAT EXPANSION DISEASE” (Max-Planck-Gesellschaft zur Förderung der Wissenschaften …, priority 2020, published 2023).

Amino acid sequences for entries named in this document (tags omitted). A change or cut given only in a name is not applied to a line headed by its entry. Residues count along the entry.
UniProt Q15648, residues 948-1574: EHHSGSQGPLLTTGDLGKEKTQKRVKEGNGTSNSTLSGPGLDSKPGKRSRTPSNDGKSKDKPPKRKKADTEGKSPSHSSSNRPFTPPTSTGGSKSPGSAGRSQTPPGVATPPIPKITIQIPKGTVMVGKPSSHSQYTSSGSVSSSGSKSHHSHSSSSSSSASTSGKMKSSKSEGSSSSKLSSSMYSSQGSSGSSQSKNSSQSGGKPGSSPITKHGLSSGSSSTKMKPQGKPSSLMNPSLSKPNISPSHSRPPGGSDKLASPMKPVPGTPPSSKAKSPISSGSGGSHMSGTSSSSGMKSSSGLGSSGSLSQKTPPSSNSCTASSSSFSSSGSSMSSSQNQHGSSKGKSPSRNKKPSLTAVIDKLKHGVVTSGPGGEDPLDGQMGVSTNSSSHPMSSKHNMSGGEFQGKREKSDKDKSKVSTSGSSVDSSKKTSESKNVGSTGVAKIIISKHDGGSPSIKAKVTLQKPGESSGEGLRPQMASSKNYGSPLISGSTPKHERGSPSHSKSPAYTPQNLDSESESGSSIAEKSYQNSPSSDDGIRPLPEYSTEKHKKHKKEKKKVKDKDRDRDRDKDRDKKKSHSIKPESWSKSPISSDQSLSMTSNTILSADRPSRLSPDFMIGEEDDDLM
UniProt P31271: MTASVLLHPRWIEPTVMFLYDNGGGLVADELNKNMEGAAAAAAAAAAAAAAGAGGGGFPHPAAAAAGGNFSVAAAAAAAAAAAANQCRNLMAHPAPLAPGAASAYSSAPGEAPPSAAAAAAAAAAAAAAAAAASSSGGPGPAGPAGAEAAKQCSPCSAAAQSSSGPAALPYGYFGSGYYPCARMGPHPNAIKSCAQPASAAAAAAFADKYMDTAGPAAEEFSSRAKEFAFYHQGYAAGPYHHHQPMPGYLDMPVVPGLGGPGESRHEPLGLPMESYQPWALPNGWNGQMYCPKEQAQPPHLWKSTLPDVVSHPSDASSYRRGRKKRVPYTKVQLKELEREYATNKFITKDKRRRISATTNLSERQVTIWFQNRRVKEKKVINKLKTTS
UniProt Q13950, residues 1-100: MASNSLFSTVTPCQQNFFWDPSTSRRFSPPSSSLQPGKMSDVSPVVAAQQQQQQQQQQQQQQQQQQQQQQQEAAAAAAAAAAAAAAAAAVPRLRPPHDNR

No constants are given. Whether binding was seen depends on the method and setting. Some entries that bind do so weakly or less than the wild type.

This assay concerns the target Med1 IDR-GFP fusion protein (purified, recombinant) (UniProt Q15648). In words: in vitro droplet mixing of purified proteins with 10% PEG-8000.

In the case of “Hoxa13 wt IDR-mCherry fusion protein (purified) (from UniProt P31271 30-227)”, the binding entry is reported as “binds”.

As to “Runx2 wt IDR-mCherry fusion protein (purified) (from UniProt Q13950 1-100)”, the binding entry is on record as “binds”.
